Results reported in PMC11968270.
Construct, isoform or probe ends are uncertain for at least one entry. For part of these data: Negatives hold for the conditions tested.

How the values were obtained:
[1] = test system: GST-SlMYB72 (Solanum lycopersicum (tomato)); assay: competition with a labelled probe; settings: unlabeled competitor about 1 uM (50x) eliminates shift of N1; EMSA with LightShift Chemiluminescent kit (Thermo); about 0.02 uM biotin probe, about 2 ug protein per lane; pH and temperature not stated; recombinant protein; protein details: GST (N-terminal, pGEX-4T-1)
[2] = test system: GST; assay: EMSA; settings: about 0.02 uM probe, 2 ug protein; EMSA with LightShift Chemiluminescent kit (Thermo); about 0.02 uM biotin probe, about 2 ug protein per lane; pH and temperature not stated; recombinant protein; protein details: GST; label: biotin
[3] = test system: GST-SlMYB72 (Solanum lycopersicum (tomato)); assay: EMSA; settings: about 0.02 uM probe, 2 ug protein; EMSA with LightShift Chemiluminescent kit (Thermo); about 0.02 uM biotin probe, about 2 ug protein per lane; pH and temperature not stated; recombinant protein; protein details: GST (N-terminal, pGEX-4T-1); label: biotin

GTGATATCATATACTGTTGTATTCATTTTG (double strand) [SlCycB2 promoter cold probe]
binding result [1]: binds

GTGATATCATATACTGTTGTATTCATTTTG (double strand) [SlCycB2 promoter probe]
binding result [2]: no binding | binding result [3]: binds
